Results published in publication PMC6131548.
Results are given in words; binding and its absence hold for the method and conditions named. For part of these data: In cells and extracts the contact can be indirect. Some results given as binding are weak or reduced against the parent protein; the word gives no strength. Sequences can lack the tags named with a protein. Blank lines part the entries; values can stand above or below the binder they belong to.

Experiments:
[1] = target: T1, GST-Tsr2-C (S. cerevisiae (yeast)) (UniProt Q06672); assay: pull-down; GST-Tsr2-C immobilised on Glutathione Sepharose, incubated with purified Tsr2 or Tsr2-N and E. coli lysate containing eS26, with RNase A; Coomassie and western (rows of purified Tsr2 and Tsr2-N); both purified
T1 sequence: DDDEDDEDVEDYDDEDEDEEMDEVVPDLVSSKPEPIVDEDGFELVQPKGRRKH

[2] = target: eS26^ΔESS1-FLAG (S. cerevisiae (yeast)) (UniProt P39938); assay: pull-down; 1.5 µM His6-Tsr2 added to preassembled GST-Kap123:eS26^FLAG (variant) complexes on Glutathione Sepharose, 1 h, 4 °C; western with α-FLAG; only the binder purified
[3] = target: eS26^FLAG (S. cerevisiae (yeast)) (UniProt P39938); assay: as above
[4] = target: eS26^ΔESS2-FLAG (S. cerevisiae (yeast)) (UniProt P39938); assay: as above
[5] = target: recombinant WT eS26 (S. cerevisiae (yeast)) (UniProt P39938); assay: pull-down; recruitment of eS26 to the Fap7:uS11 complex and extraction by Tsr2, Supplementary Fig. 7b; set-up not shown
[6] = target: T2, ProtA-FLAG-ESS2 (S. cerevisiae (yeast)) (UniProt P39938); assay: pull-down; ProteinA-Tev-FLAG-ESS2 purified from yeast; FLAG eluate, SDS-PAGE, Coomassie and western analyses
T2 sequence: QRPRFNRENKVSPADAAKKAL

binding [1]: no binding
binding [2]: binds
binding [3]: binds
binding [4]: binds
binding [5]: binds
B1: His6-Tsr2 (protein, UniProt Q06672 1-205)
chain: MSTQYIDETAFVQAEQGKTNLMFSDEKQQARFELGVSMVIYKWDALDVAVENSWGGPDSAEKRDWITGIVVDLFKNEKVVDAALIEETLLYAMIDEFETNVEDDSALPIAVEVINIYNDCFNLNYNKVEKLYLEWQEKQRTKKSKRVVHIEGDDDEDDEDVEDYDDEDEDEEMDEVVPDLVSSKPEPIVDEDGFELVQPKGRRKH

binding [6]: binds
B2: Tsr2 (endogenous, yeast) (protein, UniProt Q06672 1-205)
chain: B1 chain
